In article PMC7468482:
These are yes or no findings as the source states them, for the method shown. Some entries that bind do so weakly or less than the wild type.

Amino acid sequences for entries named in this document (tags omitted). A change or cut given only in a name is not applied to a line headed by its entry.
UniProt Q9FIP9: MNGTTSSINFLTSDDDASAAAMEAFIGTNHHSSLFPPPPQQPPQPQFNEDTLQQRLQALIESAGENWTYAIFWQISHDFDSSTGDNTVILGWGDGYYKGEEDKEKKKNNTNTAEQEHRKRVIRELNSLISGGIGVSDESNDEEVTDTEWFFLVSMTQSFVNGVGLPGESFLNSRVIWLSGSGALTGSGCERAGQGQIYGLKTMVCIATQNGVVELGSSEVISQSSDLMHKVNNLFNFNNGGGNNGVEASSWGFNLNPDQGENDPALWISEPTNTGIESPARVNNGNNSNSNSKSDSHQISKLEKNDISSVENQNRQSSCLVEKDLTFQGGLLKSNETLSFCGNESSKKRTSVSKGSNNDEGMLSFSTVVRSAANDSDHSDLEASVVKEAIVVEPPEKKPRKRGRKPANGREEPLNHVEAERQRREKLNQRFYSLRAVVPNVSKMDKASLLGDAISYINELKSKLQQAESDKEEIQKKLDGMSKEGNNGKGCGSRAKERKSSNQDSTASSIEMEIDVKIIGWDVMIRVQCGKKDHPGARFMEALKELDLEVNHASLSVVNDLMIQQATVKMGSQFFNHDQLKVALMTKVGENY
UniProt Q7XA73: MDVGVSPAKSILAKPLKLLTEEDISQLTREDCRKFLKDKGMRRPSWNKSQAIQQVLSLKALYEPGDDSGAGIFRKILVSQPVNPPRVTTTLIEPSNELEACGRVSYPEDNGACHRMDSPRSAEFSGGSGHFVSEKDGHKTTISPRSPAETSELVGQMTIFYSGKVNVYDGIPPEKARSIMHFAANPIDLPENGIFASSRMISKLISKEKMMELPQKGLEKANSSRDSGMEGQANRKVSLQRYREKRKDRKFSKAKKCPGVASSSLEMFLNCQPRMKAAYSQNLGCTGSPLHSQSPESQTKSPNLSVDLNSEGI
UniProt Q8GY55: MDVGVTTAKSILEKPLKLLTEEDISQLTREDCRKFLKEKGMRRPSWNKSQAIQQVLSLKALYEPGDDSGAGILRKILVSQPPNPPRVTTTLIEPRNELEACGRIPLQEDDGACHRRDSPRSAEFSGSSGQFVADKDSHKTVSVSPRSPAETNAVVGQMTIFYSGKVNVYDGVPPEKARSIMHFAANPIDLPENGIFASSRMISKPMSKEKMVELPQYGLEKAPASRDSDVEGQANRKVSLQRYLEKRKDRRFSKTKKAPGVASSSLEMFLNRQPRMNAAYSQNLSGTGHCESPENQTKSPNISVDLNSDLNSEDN

Molecular target: MYC3 transcription factor (Arabidopsis thaliana) (UniProt Q9FIP9)
Assay: two-hybrid; GAL4 system, S. cerevisiae PJ69-4A co-transformed with bait and prey (pGAL424gate, pGBT9gate); 10- or 100-fold dilutions dropped on SD-Leu-Trp (control) and SD-Leu-Trp-His (selective); cultures grown at 30°C

binding | Substance
binds | mutant PPD1 (Y242F and R243L) (from UniProt Q7XA73 1-313)
binds | mutant PPD2 (Y243F) (from UniProt Q8GY55 1-315)
